Read-outs that look alike come from different tables or passages of the source. No constants are given. Whether binding was seen depends on the method and setting. Binding seen in cells or lysates may run through a third protein. A yes stands for co-enrichment or nearness to the bait. Other partners may have been found. For part of these data: A no says only that the protein was not detected with the bait. For part of these data: Sequences can lack the tags named with a protein.

Experiment in all cases: affinity purification with mass spectrometry; anti-GFP bead matrix (Miltenyi) on RIPA extracts of 1-week-old seedlings of kinetochore-GFP lines; on-bead trypsin digestion, LC-MS/MS; at least two unique peptides in at least two independent experiments, background from 10 negative controls excluded
Assay [1] concerns the target T1, CENP-S (Arabidopsis seedlings, IP) (Arabidopsis thaliana) (UniProt Q9FI55).
T1 sequence: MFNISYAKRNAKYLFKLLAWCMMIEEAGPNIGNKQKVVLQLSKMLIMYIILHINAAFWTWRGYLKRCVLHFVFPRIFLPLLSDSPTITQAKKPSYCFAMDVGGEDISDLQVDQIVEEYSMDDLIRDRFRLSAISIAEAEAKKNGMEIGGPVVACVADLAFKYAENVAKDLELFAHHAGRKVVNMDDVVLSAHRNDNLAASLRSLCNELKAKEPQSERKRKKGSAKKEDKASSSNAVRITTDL

Assay [2] addresses T2, GFP:CENP-C (Arabidopsis reporter line, IP bait) (Arabidopsis thaliana) (UniProt Q66LG9).
T2 sequence: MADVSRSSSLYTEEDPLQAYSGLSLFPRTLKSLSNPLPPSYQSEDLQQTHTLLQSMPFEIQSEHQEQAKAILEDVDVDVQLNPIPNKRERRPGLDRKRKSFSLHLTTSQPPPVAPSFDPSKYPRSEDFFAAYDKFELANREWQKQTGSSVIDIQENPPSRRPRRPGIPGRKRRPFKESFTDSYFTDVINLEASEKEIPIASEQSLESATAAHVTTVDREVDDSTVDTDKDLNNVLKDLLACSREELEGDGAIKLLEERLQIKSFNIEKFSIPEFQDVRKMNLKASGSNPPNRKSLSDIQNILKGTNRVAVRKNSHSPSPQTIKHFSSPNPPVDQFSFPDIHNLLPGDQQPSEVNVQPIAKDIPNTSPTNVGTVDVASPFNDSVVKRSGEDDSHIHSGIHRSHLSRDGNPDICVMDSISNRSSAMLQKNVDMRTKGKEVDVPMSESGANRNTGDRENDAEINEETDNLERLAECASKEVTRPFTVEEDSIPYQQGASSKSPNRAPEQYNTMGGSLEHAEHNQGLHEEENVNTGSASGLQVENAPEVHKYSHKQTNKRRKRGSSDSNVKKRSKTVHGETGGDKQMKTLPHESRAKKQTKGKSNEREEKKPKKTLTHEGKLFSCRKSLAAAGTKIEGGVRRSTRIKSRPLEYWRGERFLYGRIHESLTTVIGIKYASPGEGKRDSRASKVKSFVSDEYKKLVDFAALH

In assay [3] the target is T2, GFP:CENP-C (Arabidopsis reporter line, IP bait) (Arabidopsis thaliana). The source holds these as a separate data set.

As to NASP, the binding entry in assay [1] and in assay [2] was “binds” in each case.

B1: CENH3 (Arabidopsis, endogenous) (protein, UniProt Q8RVQ9 1-178)
chain: MARTKHRVTRSQPRNQTDAAGASSSQAAGPTTTPTRRGGEGGDNTQQTNPTTSPATGTRRGAKRSRQAMPRGSQKKSYRYRPGTVALKEIRHFQKQTNLLIPAASFIREVRSITHMLAPPQINRWTAEALVALQEAAEDYLVGLFSDSMLCAIHARRVTLMRKDFELARRLGGKGRPW
For B1, in assay [3], the binding result was “no binding”.

Source of the values: publication PMC12526889.
